Assay results taken from patent US8623862B2, “Derivatives of N-[(1H-pyrazol-1-yl)aryl]-1H-indole or 1H-indazole-3-carboxamide, preparation thereof and applications thereof in therapeutics” (Sanofi, priority 2011, dated 2014).

Tested on: platelet aggregation
Assay: Inhibition of platelet aggregation in vitro (rat blood);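 also: aggregation induced by ADP added as 4 µL of a 250 µM solution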
Format: cell-based
Procedure: The measurements of platelet aggregation are performed at 37° C. in glass tubes (Chrono-Log—Kordia aggregometer).
Inhibition of Platelet Aggregation In Vitro (Rat Blood)
The blood is taken from male rats of the Sprague-Dawley strain, weighing 250-300 g.
The platelet-rich plasma (PRP) is obtained by centrifugation of the blood at 300 g for 5 minutes, and the measurements of platelet aggregation are performed as described above.
The results are calculated using the area under the curve of absorbance measured for 6 minutes, and expressed as percentage inhibition.

IC50: 140 nM
SMILES: CCCC(=O)c1cnn(-c2ccc(NC(=O)c3cn(CC(=O)N4CCN(Cc5cc(C)on5)CC4)c4ccc(Cl)cc34)cc2)c1C.Cl [Compound 166]
